Test system: Candida albicans MTU 12021
Assay: Agar dilution MIC, single and combined use
Type: cell-based
Settings: Sabouraud agar, 37° C., 48 hours
Protocol: (1) The effects of the combined use of Compound 1 with various imidazole antifungal agents against Candida albicans MTU 12021 strain were examined as follows. […] Then, distilled water containing 0.1% by weight of Tween 80 was added thereto to obtain drug solutions having a concentration of from 1 to 1,000 μg/ml.
1 ml of each drug solution diluted twice was introduced into a sterilized Petri dish, and 8 ml of Sabouraud agar medium was added to prepare a agar plate. Thus, a series of agar plates for the combinations having various concentrations were prepared.
Candida albicans MTU 12021 strain cultured on a Sabouraud agar medium for 24 hours, was suspended in a saline, and a cells suspension having a concentration of 2×10^6 spores/ml was prepared by counting the number of spores by a hemacytometer. Then, 50 μl of the cells suspension was inoculated to the above agar plates by means of a microplanter (manufactured by Sakuma Seisakusho). The inoculated agar plates were cultured at 37° C. for 48 hours, whereupon the presence or absence of the growth of the strain was examined.
Culture medium: Sabouraud agar medium
Culturing condition: 37° C. for 48 hours
Strain used: Candida albicans MTU 12021

`Clc1ccc(CO/N=C(\Cn2ccnc2)c2ccc(Cl)cc2Cl)c(Cl)c1` [oxiconazole] was tested, and the MIC (Candida albicans, MTU12021, single use, read-out: Minimum Inhibitory Concentration (MIC)) was 100 µg/mL and the “Minimum Inhibitory Concentration (MIC) of the agent combined with Compound 1” value (combined with Compound 1 at 100 μg/ml) was 6.25 µg/mL.
